This note sets out measurements from patent US20160017053A1 (IMMUNOGEN, published 2016).

Experiment [1] addresses monkey EGFR on Vero cells (African green monkey kidney cell line) (African green monkey). The experiment in a line: flow cytometry on Vero cells. (In general: In flow cytometry, cells or beads pass a laser one at a time.)
The target is the same in experiment [2]. The experiment in a line: flow cytometry of hybridoma supernatant on Vero cells.

Results are given in words; binding and its absence hold for the method and conditions named. Binding can be weak; no strength is given.

B1: rat ML66 antibody (antibody, V domains shown)
VH: QVQLKESGPGLVQPSQTLSLTCTVSGLSLASNSVSWIRQPPGKGLEWMGVIWNHGGTDYNSVIKSRLSISRDTSKSQVFLKMNSLQTEDTAMYFCVRKGGIYFDYWGQGVMVTVSS
VL: DTVLTQSPALAVSPGERVTISCRASESVSTLMHWYQQKSGQQPKLLIYLASHRESGVPARFSGSGSGTDFTLTIDPMEADDTATYYCQQSRNDPWTFGGGTNLELKR
notes: Rat monoclonal antibody purified from hybridoma
Regarding B1, in experiment [1], the binding entry is on record as “binds”.

B2: murine EGFR-8 antibody (antibody, V domains shown)
VH: EVQLQQSGAELVKPGASVKLSCTTSGFNIKDTYIHWVKKRPEQGLEWIGRIDPTNGNNKYDPKFQGKATITADTSSNTAYLQLSSLTSEDTAVYYCTREDGYRYDDWYFDVWGAGTTVTVSS
VL: QIVLTQSPASMSASPGEKVTMTCSASSSVSYMHWYQQKSGTSPKRWIYATSKLASGVPARFSGSGSGTSYSLTISSMEAEDAATYYCQQWSSNPLTFGAGTKLELKR
notes: Mouse monoclonal antibody purified from hybridoma; also called muEGFR-8
In the case of B2, the binding entry in experiment [1] and in experiment [2] was “binds” throughout.
